PubChem BioAssay AID1224830, NIAID – 2016
The deposit covers about 18,000 reagents; shown is a part drawn at random. About 2,900 of them (16%) count as active. 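Calls are made per well; low scores hint the gene aids the LPS response, high scores that it dampens it.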 Repeated entries: four replicate wells of each siRNA pool.

Assay: 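Host factors that control LPS-induced TNF expression in human macrophages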 (primary screen)
Cell system: human THP-1 monocytic leukaemia cells, TNF dual-luciferase reporter clone, PMA-differentiated to macrophage-like cells
Reagents: siRNA pool against human genes, 50 nM
Duration: LPS for 4 h, given about 3 days after siRNA transfection
Challenge: bacterial LPS (TLR4 ligand), 10 ng/ml
Read-out: 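TNF firefly reporter luminescence divided by renilla, normalised to the plate median, then turned into a robust z-score for each replicate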
Scale: TNF reporter robust z-score: higher = stronger TNF reporter response to LPS
Hit rule: 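a well is active when its z-score exceeds 2.8 or falls below -1.5; control wells carry no call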

ATG5 (GeneID 9474)
- TNF reporter robust z-score: -1.05
- outcome: inactive

ATG5 (GeneID 9474)
- TNF reporter robust z-score: 0.31
- outcome: inactive

ATG5 (GeneID 9474)
- TNF reporter robust z-score: 0.11
- outcome: inactive

ATG5 (GeneID 9474)
- TNF reporter robust z-score: 1.06
- outcome: inactive

COX7A2L (GeneID 9167)
- TNF reporter robust z-score: 1.73
- outcome: inactive

COX7A2L (GeneID 9167)
- TNF reporter robust z-score: 0.61
- outcome: inactive

COX7A2L (GeneID 9167)
- TNF reporter robust z-score: 0.82
- outcome: inactive

COX7A2L (GeneID 9167)
- TNF reporter robust z-score: 0.46
- outcome: inactive

3 of these entries in another layout:
Target gene	TNF reporter robust z-score	outcome
COX7A2L (GeneID 9167)	1.73	inactive
COX7A2L (GeneID 9167)	0.61	inactive
COX7A2L (GeneID 9167)	0.82	inactive

Further reagents follow:
IARS2 (GeneID 55699)
- TNF reporter robust z-score: 0.56
- outcome: inactive

IARS2 (GeneID 55699)
- TNF reporter robust z-score: -0.12
- outcome: inactive

IARS2 (GeneID 55699)
- TNF reporter robust z-score: 1.14
- outcome: inactive

IARS2 (GeneID 55699)
- TNF reporter robust z-score: 0.02
- outcome: inactive

ZBTB45 (GeneID 84878)
- TNF reporter robust z-score: -0.87
- outcome: inactive

ZBTB45 (GeneID 84878)
- TNF reporter robust z-score: -0.54
- outcome: inactive

ZBTB45 (GeneID 84878)
- TNF reporter robust z-score: -0.34
- outcome: inactive

ZBTB45 (GeneID 84878)
- TNF reporter robust z-score: 0.13
- outcome: inactive

IST1 (GeneID 9798)
- TNF reporter robust z-score: -0.32
- outcome: inactive

IST1 (GeneID 9798)
- TNF reporter robust z-score: -0.55
- outcome: inactive

IST1 (GeneID 9798)
- TNF reporter robust z-score: -0.11
- outcome: inactive

IST1 (GeneID 9798)
- TNF reporter robust z-score: 0.59
- outcome: inactive
